Measurements reported in PMC13168378.
No constants are given. Whether binding was seen depends on the method and setting. Binding seen in cells or lysates may run through a third protein. Here binding means that the protein was enriched with, or labelled near, the bait; the list need not be complete.

Protein sequences, listed by entry. Tags and fused reporters are not part of them.
UniProt P48148: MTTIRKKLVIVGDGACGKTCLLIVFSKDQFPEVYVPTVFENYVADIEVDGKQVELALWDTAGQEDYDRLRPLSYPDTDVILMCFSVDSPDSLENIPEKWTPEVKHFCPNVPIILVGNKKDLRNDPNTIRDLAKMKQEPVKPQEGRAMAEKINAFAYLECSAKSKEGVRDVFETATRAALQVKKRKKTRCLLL
UniProt Q9V8R9: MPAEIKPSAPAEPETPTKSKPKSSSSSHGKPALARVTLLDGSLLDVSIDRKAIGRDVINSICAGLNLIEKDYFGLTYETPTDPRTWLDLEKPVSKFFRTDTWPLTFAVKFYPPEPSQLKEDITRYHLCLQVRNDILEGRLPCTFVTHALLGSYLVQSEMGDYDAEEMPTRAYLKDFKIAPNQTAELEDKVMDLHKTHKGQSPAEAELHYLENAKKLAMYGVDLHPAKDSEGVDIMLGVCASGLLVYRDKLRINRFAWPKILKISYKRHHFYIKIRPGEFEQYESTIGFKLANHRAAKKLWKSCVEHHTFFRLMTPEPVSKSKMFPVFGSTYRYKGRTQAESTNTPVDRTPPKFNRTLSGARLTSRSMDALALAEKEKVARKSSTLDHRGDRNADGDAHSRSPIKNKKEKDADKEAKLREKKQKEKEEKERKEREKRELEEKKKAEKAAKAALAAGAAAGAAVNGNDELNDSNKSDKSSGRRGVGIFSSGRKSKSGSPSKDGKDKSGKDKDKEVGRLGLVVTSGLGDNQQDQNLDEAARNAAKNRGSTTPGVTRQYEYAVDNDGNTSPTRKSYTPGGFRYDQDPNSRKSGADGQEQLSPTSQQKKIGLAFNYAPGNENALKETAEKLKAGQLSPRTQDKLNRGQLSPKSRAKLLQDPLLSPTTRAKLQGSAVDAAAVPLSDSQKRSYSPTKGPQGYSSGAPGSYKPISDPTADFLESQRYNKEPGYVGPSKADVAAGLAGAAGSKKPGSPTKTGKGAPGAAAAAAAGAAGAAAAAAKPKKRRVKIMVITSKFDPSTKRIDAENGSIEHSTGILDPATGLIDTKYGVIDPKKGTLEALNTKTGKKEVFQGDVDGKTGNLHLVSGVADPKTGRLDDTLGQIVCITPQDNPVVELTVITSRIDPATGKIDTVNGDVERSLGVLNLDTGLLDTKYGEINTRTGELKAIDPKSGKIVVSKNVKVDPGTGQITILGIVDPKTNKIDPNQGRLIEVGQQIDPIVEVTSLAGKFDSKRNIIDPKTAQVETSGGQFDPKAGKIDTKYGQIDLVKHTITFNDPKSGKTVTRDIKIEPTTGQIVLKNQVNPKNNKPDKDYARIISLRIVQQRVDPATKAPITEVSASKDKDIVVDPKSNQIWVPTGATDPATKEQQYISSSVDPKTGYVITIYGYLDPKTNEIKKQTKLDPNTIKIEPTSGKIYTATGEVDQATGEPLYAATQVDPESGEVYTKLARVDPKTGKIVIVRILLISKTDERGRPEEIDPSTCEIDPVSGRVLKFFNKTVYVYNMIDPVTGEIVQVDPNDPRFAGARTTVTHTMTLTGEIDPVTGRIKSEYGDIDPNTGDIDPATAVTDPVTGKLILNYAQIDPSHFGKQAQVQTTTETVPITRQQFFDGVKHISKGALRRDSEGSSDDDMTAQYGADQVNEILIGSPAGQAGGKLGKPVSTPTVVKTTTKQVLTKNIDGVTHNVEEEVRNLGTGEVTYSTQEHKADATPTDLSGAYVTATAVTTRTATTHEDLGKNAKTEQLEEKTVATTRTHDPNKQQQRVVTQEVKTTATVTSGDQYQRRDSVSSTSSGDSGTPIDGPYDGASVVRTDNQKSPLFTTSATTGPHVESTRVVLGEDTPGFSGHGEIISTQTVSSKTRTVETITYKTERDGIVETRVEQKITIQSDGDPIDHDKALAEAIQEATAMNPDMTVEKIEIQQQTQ
UniProt P46150: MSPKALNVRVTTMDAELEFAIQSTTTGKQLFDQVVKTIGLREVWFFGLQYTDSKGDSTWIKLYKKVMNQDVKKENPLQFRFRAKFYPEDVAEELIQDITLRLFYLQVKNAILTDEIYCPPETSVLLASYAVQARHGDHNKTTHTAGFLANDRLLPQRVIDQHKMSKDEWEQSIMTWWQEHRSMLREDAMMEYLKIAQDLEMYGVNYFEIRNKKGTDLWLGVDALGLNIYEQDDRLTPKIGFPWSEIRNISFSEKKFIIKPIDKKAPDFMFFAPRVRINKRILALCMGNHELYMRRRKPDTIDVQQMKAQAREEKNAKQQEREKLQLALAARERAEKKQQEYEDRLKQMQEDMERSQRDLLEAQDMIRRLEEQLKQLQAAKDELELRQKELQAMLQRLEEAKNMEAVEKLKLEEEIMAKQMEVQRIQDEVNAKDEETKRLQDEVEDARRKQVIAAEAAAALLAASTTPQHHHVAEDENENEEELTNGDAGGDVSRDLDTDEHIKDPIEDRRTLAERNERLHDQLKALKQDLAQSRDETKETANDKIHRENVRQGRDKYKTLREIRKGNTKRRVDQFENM
UniProt P06754: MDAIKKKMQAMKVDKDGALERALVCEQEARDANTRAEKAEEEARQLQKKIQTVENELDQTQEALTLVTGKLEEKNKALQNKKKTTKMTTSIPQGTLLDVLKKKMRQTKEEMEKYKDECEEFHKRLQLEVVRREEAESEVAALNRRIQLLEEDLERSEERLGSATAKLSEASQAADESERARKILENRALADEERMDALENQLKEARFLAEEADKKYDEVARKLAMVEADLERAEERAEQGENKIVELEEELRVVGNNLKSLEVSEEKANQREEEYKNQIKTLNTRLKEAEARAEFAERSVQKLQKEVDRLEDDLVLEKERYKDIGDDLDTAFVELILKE
UniProt P32392: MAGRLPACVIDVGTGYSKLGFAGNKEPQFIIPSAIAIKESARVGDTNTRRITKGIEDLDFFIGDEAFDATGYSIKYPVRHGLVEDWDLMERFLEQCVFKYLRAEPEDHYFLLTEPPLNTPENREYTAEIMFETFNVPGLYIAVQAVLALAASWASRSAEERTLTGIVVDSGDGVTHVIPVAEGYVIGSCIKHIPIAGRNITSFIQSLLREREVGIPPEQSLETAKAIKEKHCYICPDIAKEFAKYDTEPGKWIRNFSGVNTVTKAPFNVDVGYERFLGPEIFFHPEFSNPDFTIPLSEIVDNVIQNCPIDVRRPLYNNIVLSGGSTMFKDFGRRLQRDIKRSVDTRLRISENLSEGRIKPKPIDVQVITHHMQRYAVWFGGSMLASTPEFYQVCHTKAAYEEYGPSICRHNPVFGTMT
UniProt Q9W2N0: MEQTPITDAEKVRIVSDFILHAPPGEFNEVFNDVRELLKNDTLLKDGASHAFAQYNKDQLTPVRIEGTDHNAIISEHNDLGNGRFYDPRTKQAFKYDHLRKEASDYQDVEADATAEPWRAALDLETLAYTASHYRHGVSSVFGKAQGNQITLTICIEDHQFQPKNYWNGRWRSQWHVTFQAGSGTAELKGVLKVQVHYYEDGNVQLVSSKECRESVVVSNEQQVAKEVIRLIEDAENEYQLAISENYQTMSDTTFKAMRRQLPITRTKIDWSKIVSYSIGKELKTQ
UniProt Q8MSS1: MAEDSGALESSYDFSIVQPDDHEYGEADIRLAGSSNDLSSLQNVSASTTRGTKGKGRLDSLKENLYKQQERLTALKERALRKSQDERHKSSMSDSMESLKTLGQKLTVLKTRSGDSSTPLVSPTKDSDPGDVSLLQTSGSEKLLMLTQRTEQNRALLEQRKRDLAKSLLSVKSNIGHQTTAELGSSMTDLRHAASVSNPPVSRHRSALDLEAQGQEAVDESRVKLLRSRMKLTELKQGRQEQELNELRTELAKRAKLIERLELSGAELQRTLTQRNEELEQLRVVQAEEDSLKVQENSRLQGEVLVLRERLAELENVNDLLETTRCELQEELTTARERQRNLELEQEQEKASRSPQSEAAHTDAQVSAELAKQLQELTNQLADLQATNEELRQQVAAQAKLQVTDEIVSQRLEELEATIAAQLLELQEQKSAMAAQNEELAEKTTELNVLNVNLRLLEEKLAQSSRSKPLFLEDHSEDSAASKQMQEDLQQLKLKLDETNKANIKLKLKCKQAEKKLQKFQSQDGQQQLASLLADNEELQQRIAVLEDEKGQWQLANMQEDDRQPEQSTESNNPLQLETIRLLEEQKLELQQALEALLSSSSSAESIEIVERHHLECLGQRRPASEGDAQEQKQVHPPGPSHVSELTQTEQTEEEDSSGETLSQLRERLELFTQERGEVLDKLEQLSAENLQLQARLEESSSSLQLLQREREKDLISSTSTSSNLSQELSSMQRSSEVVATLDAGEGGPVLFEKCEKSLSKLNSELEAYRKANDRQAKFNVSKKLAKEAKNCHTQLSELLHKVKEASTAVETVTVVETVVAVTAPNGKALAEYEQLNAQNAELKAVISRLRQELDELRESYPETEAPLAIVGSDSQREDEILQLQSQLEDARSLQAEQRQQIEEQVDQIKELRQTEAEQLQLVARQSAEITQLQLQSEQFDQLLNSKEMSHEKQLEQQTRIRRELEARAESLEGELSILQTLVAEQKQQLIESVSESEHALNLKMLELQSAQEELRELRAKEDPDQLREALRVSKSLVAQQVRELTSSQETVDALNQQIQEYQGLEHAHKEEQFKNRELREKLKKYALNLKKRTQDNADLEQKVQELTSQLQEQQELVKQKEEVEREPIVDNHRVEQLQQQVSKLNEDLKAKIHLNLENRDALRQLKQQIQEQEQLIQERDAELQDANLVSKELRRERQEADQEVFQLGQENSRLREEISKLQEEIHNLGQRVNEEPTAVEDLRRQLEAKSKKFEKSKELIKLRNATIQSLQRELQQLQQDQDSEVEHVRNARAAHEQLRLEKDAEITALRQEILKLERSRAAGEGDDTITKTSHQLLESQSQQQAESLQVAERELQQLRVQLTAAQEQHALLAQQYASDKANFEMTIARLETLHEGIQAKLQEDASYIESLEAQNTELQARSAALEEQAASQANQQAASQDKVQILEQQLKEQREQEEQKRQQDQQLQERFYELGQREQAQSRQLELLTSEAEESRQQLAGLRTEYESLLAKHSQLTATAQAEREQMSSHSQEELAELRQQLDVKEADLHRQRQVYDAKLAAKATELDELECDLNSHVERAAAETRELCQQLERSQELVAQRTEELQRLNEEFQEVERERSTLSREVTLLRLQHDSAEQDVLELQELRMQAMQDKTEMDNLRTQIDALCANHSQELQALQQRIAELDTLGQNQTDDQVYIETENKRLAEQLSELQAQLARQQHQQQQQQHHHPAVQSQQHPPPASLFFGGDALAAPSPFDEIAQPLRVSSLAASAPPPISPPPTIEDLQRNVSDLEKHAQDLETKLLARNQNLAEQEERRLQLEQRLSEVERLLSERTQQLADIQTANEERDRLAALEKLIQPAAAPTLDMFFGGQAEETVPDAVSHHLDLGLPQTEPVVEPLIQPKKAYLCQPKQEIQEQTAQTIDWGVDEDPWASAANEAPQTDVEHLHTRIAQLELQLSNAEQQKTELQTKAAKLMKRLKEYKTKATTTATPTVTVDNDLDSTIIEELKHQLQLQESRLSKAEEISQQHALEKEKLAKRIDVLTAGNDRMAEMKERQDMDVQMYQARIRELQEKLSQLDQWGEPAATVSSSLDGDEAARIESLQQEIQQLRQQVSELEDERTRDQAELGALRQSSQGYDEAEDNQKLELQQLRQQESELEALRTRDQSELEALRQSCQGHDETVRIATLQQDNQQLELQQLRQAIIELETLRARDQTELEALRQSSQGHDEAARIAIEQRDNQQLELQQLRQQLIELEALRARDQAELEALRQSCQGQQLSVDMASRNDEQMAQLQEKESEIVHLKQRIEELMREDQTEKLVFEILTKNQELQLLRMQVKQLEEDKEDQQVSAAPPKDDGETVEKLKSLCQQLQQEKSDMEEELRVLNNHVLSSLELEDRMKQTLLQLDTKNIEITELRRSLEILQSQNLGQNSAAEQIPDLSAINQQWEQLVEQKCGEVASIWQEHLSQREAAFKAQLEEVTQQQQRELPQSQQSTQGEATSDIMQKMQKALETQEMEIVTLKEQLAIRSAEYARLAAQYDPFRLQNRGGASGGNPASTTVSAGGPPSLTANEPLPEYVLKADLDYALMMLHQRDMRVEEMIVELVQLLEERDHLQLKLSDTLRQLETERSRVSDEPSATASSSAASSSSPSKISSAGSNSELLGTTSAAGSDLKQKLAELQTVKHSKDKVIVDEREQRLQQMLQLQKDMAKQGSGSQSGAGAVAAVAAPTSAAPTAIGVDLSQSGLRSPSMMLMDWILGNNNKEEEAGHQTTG

Molecular target: Rho1 GTPase (Drosophila melanogaster (endogenous in third instar larvae)) (UniProt P48148)
Test: affinity purification with mass spectrometry; anti-Rho1 antibody on Protein G Plus-agarose beads; larval Malpighian tubule lysates (RIPA buffer) of Oregon R+ and of Drice mutants, 2 h at 4 °C; bound proteins by mass spectrometry

Row | Molecule | binding
1 | cora (from UniProt Q9V8R9 1-1698) | binds
2 | moesin (from UniProt P46150 1-578) | binds
3 | tropomyosin-I (from UniProt P06754 1-339) | binds
4 | cpb (protein, UniProt P48603 1-276) MSEMQMDCALDLMRRLPPQQIEKNLIDLIDLAPDLCEDLLSSVDQPLKIAKDKEHGKDYLLCDYNRDGDSYRSPWSNSYYPPLEDGQMPSERLRKLEIEANYAFDQYREMYYEGGVSSVYLWDLDHGFAAVILIKKAGDGSKMIRGCWDSIHVVEVQEKTTGRTAHYKLTSTAMLWLQTNKQGSGTMNLGGSLTRQQEQDANVSESSPHIANIGKMVEEMENKIRNTLNEIYFGKTKDIVNGLRSTQSLADQRQQAAMKQDLAAAILRRNVKPESN | binds

Continued, values first:

Row | binding | Molecule
5 | binds | Arp3 (from UniProt P32392 1-418)
6 | binds | cpa (from UniProt Q9W2N0 1-286)
7 | binds | lva (from UniProt Q8MSS1 1-2779)
8 | binds | flare (protein, UniProt Q9VU68 1-608) MAQPQPPAYENKNIYATLPRTQRGQPIVLGADPKGKNFLYTNGNSVIIRNIENPAIADVYTEHSCAVNVAKYSPSGFYIASGDASGKIRIWDTVNKEHLLKNEFQPIAGPIKDISWSPDNQRIVAVGEGRERFGHVFMSETGTSVGEISGQSKSINSADFRPARPFRIVTGSEDNTIAVFEGPPFKFKMTKQDHSRFVQAVRYSPDGKFFASAGFDGKVFLYDGTSSELVGEFGSPAHKGGVYALAWKPDSTQLLTCSGDKTCRLWTVESRELVSEFVMGTTVDDQQVSCLWQGDNLITVSLSGVITYLNVADPSKPLRVVKGHNKPITVLGLSDDRSTIYTGSHDGVVTNWNSGSGTNDRITGTGHGNQINGIAAWGDFVYTCGIDDSLRQFSVEGNSYTDYVVKLNCQPRGLAILRNENIIALACIKELTLVQDQKKIFSLPIKYEASSIAVNADTSDVAVGGDDQKLHIYTLKGGVLEPKVELDHLGAVTDVSYSPDLKYLVACDAHRKVVLYSVEEYKPAHNKEWGFHSARVNTVAWSPNSLLVASGSLDTTIIIWSVANPAKHTIIKNAHPQSQITRLVWLDNNTVISTGQDCNTKVWHVENI
